Results deposited as PubChem BioAssay AID1259405 (NCATS, 2018).

Aim: 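Silenced genes that increase secreted GFP made by CHO cells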 (primary screen)
System: Chinese hamster CHO-K1 ovary cells with stable secreted eGFP expression
Reagents: single siRNA against mouse genes, 0.8 pmol siRNA per well (2 µl of 400 nM stock)
Duration: 3 days
Measured: 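Percent of the per-plate non-targeting control median for intracellular GFP per well by laser scanning cytometry and for cell viability by ATP luminescence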
Direction: GFP, % of control: higher = more GFP per well, higher productivity; viability (ATP), % of control: higher = more viable cells (more ATP)
Call rule: 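a knock-down is called active if GFP reaches 120% or more of non-targeting control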
Shown is a random part of about 50,000 reagents tested. Of all reagents, about 4,000 (8%) got an active call. 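Mouse siRNA library applied to hamster cells; one well for each siRNA.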 Entries without a mark were called inactive. The numbers tell different reagents against one gene apart. No sequences are given here.

gene | reagent no. | GFP, % of control | viability (ATP), % of control
Thap7 (THAP domain containing 7) | 1 | 86.9 | 123
Thap7 (THAP domain containing 7) | 2 | 61.1 | 78
Thap7 (THAP domain containing 7) | 3 | 48.8 | 55.7
Abcg5 (ATP binding cassette subfamily G member 5) | 1 | 119 | 86.2
Abcg5 (ATP binding cassette subfamily G member 5) | 2 | 28.9 | 36.8
Abcg5 (ATP binding cassette subfamily G member 5) | 3 | 91.4 | 75.1
Rad52 (RAD52 homolog, DNA repair protein) | 1 | 106 | 104
Rad52 (RAD52 homolog, DNA repair protein) | 2 | 110 | 77.8
AI606181 (expressed sequence AI606181) | 1 | 64.5 | 60.8
AI606181 (expressed sequence AI606181) | 2 | 98.1 | 87.5
AI606181 (expressed sequence AI606181) | 3 | 98.2 | 84.5
Rab21 (RAB21, member RAS oncogene family) | 1 | 59.5 | 91
Rab21 (RAB21, member RAS oncogene family) | 2 | 95.8 | 90.1
Rab21 (RAB21, member RAS oncogene family) | 3 | 76.3 | 87
Mkrn1 (makorin, ring finger protein, 1) | 1 | 86.3 | 63.1
Mkrn1 (makorin, ring finger protein, 1) | 2 | 69.6 | 66.6
Mkrn1 (makorin, ring finger protein, 1) | 3 | 73.1 | 89.8
Arl5c (ADP-ribosylation factor-like 5C) | 1 | 56.6 | 50.6
Arl5c (ADP-ribosylation factor-like 5C) | 2 | 176 (active) | 60.8
Arl5c (ADP-ribosylation factor-like 5C) | 3 | 72.6 | 72.5
Dmc1 (DNA meiotic recombinase 1) | 1 | 39.9 | 69.6
Dmc1 (DNA meiotic recombinase 1) | 2 | 50.1 | 61
Dmc1 (DNA meiotic recombinase 1) | 3 | 67.7 | 55
Adk (adenosine kinase) | 1 | 301 (active) | 134
Adk (adenosine kinase) | 2 | 80.6 | 94.7
Adk (adenosine kinase) | 3 | 69.3 | 79.9
Sar1a (secretion associated Ras related GTPase 1A) | 1 | 77.3 | 72.7
Sar1a (secretion associated Ras related GTPase 1A) | 2 | 28.3 | 45
Sar1a (secretion associated Ras related GTPase 1A) | 3 | 148 (active) | 76.9
Sfn (stratifin) | 1 | 81.4 | 94.6
Sfn (stratifin) | 2 | 50.6 | 59.7
Sfn (stratifin) | 3 | 48.2 | 47.1
Wnt11 (WNT family member 11) | 1 | 103 | 69.5
Wnt11 (WNT family member 11) | 2 | 97.7 | 57.7
Wnt11 (WNT family member 11) | 3 | 44.7 | 67.7
Zbed3 (zinc finger, BED type containing 3) | 1 | 68.8 | 99.8
Zbed3 (zinc finger, BED type containing 3) | 2 | 59.9 | 76.9
Zbed3 (zinc finger, BED type containing 3) | 3 | 123 (active) | 103
Rin2 (Ras and Rab interactor 2) | 1 | 104 | 87.6
Rin2 (Ras and Rab interactor 2) | 2 | 51.6 | 71
Rin2 (Ras and Rab interactor 2) | 3 | 68.5 | 70.2

13 neighbouring records from above:
gene | reagent no. | GFP, % of control | viability (ATP), % of control
Adk (adenosine kinase) | 2 | 80.6 | 94.7
Adk (adenosine kinase) | 3 | 69.3 | 79.9
Sar1a (secretion associated Ras related GTPase 1A) | 1 | 77.3 | 72.7
Sar1a (secretion associated Ras related GTPase 1A) | 2 | 28.3 | 45
Sar1a (secretion associated Ras related GTPase 1A) | 3 | 148 (active) | 76.9
Sfn (stratifin) | 1 | 81.4 | 94.6
Sfn (stratifin) | 2 | 50.6 | 59.7
Sfn (stratifin) | 3 | 48.2 | 47.1
Wnt11 (WNT family member 11) | 1 | 103 | 69.5
Wnt11 (WNT family member 11) | 2 | 97.7 | 57.7
Wnt11 (WNT family member 11) | 3 | 44.7 | 67.7
Zbed3 (zinc finger, BED type containing 3) | 1 | 68.8 | 99.8
Zbed3 (zinc finger, BED type containing 3) | 2 | 59.9 | 76.9

Further results follow:
gene | reagent no. | GFP, % of control | viability (ATP), % of control
Fig4 (FIG4 phosphoinositide 5-phosphatase) | 1 | 62.8 | 57.1
Fig4 (FIG4 phosphoinositide 5-phosphatase) | 2 | 77.1 | 58.4
Fig4 (FIG4 phosphoinositide 5-phosphatase) | 3 | 68.3 | 104
Mgst1 (microsomal glutathione S-transferase 1) | 1 | 96.9 | 77.4
Mgst1 (microsomal glutathione S-transferase 1) | 2 | 178 (active) | 116
Tmem98 (transmembrane protein 98) | 1 | 77.2 | 68.7
Tmem98 (transmembrane protein 98) | 2 | 89.2 | 91.8
Tmem98 (transmembrane protein 98) | 3 | 148 (active) | 175
Tmem98 (transmembrane protein 98) | 4 | 148 (active) | 175
Tmem98 (transmembrane protein 98) | 5 | 83.8 | 80.9
Tmem98 (transmembrane protein 98) | 6 | 98.4 | 82.8
Kpna7 (karyopherin subunit alpha 7) | 1 | 62.8 | 65.7
Kpna7 (karyopherin subunit alpha 7) | 2 | 107 | 83.9
Kpna7 (karyopherin subunit alpha 7) | 3 | 95.2 | 58.9
1700030K09Rik (RIKEN cDNA 1700030K09 gene) | 1 | 55 | 94.7
1700030K09Rik (RIKEN cDNA 1700030K09 gene) | 2 | 91 | 46.1
1700030K09Rik (RIKEN cDNA 1700030K09 gene) | 3 | 79.9 | 125
Padi4 (peptidyl arginine deiminase, type IV) | 1 | 137 (active) | 88.3
Padi4 (peptidyl arginine deiminase, type IV) | 2 | 117 | 76.4
Padi4 (peptidyl arginine deiminase, type IV) | 3 | 28.3 | 45.6
Tha1 (threonine aldolase 1) | 1 | 108 | 63.2
Tha1 (threonine aldolase 1) | 2 | 59.4 | 69.3
Tha1 (threonine aldolase 1) | 3 | 66.9 | 82.1
4930556L07Rik (RIKEN cDNA 4930556L07 gene) | 1 | 85.2 | 89.3
4930556L07Rik (RIKEN cDNA 4930556L07 gene) | 2 | 95 | 82.8
4930556L07Rik (RIKEN cDNA 4930556L07 gene) | 3 | 58.6 | 70.7
Noazfp (nucleolar atypical zinc finger) | 1 | 74.1 | 49.3
Noazfp (nucleolar atypical zinc finger) | 2 | 73.2 | 71.1
Noazfp (nucleolar atypical zinc finger) | 3 | 89.2 | 107
Zbtb46 (zinc finger and BTB domain containing 46) | 1 | 82.3 | 93.3
Zbtb46 (zinc finger and BTB domain containing 46) | 2 | 74.7 | 60.4
Zbtb46 (zinc finger and BTB domain containing 46) | 3 | 132 (active) | 117
Klhl5 (kelch-like 5) | 1 | 67.4 | 73.5
Klhl5 (kelch-like 5) | 2 | 51.6 | 45.3
Klhl5 (kelch-like 5) | 3 | 104 | 83.9
Pgap4 (post-GPI attachment to proteins GalNAc transferase 4) | 1 | 61.7 | 72.6
Pgap4 (post-GPI attachment to proteins GalNAc transferase 4) | 2 | 78.7 | 78.4
Pgap4 (post-GPI attachment to proteins GalNAc transferase 4) | 3 | 74.4 | 58.7
Ccl7 (C-C motif chemokine ligand 7) | 1 | 63.4 | 87.2
Ccl7 (C-C motif chemokine ligand 7) | 2 | 42.5 | 59.2
Zfp212 (Zinc finger protein 212) | 1 | 97.5 | 137
Zfp212 (Zinc finger protein 212) | 2 | 73.5 | 106
Zfp212 (Zinc finger protein 212) | 3 | 49.5 | 48.3
Capzb (capping actin protein of muscle Z-line subunit beta) | 1 | 84.8 | 103
Capzb (capping actin protein of muscle Z-line subunit beta) | 2 | 69.1 | 71.8
Capzb (capping actin protein of muscle Z-line subunit beta) | 3 | 92.1 | 66.6
Gp5 (glycoprotein 5 platelet) | 1 | 161 (active) | 176
Gp5 (glycoprotein 5 platelet) | 2 | 128 (active) | 66.5
Gp5 (glycoprotein 5 platelet) | 3 | 57.9 | 68.5
Larp1b (La ribonucleoprotein 1B) | 1 | 83.8 | 63.5
Larp1b (La ribonucleoprotein 1B) | 2 | 114 | 36.3
Larp1b (La ribonucleoprotein 1B) | 3 | 131 (active) | 71.3
Cav2 (caveolin 2) | 1 | 78.4 | 57.4
Cav2 (caveolin 2) | 2 | 64 | 61.9
Gbp7 (guanylate binding protein 7) | 1 | 102 | 73.9
Gbp7 (guanylate binding protein 7) | 2 | 66.4 | 71.3
Gbp7 (guanylate binding protein 7) | 3 | 17.5 | 22.9
Stat1 (signal transducer and activator of transcription 1) | 1 | 73.4 | 102
Stat1 (signal transducer and activator of transcription 1) | 2 | 59.7 | 75.3
Stat1 (signal transducer and activator of transcription 1) | 3 | 59.4 | 95.5
Ly6e (lymphocyte antigen 6 family member E) | 1 | 84 | 61.5
Ly6e (lymphocyte antigen 6 family member E) | 2 | 58.3 | 51.6
Ly6e (lymphocyte antigen 6 family member E) | 3 | 90.5 | 45.8
Or11h6 (olfactory receptor family 11 subfamily H member 6) | 1 | 80.8 | 36.7
Or11h6 (olfactory receptor family 11 subfamily H member 6) | 2 | 92 | 111
Or11h6 (olfactory receptor family 11 subfamily H member 6) | 3 | 54.2 | 57.4
